The other results are listed elsewhere or left out.
Key:
Test in all cases: glycan array binding signal (z-score within array); higher = stronger binding
Settings in all cases: glycan notation: IUPAC condensed, linker removed; mutation: H213R,G256S
[1] = molecular target: Gal(b1-3)[Neu5Ac(b2-6)]GalNAc
How it was run: (§1)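 The binding signal is a Z-score computed within each array. Data were drawn from 3228 arrays in the Consortium for Functional Glycomics database, restricted to those with a known protein sequence. Scores were averaged over arrays of the same protein sequence at different concentrations or buffers, and over linkers, and negative values can be taken as non-binding.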

[2] = molecular target: Gal(b1-4)GalNAc(a1-3)[Fuc(a1-2)]Gal(b1-4)GlcNAc
How it was run: as §1

[3] = molecular target: Gal(b1-4)GalNAc(b1-3)[Fuc(a1-2)]Gal(b1-4)GlcNAc
How it was run: as §1

Gal(b1-4)Glc = molecular target: Gal(b1-4)Glc
How it was run: as §1

Gal(b1-4)Glc6S = molecular target: Gal(b1-4)Glc6S
How it was run: as §1

Gal(b1-4)GlcNAc = molecular target: Gal(b1-4)GlcNAc
How it was run: as §1

[4] = molecular target: Gal(b1-4)GlcNAc(b1-2)Man(a1-3)[Gal(b1-4)GlcNAc(b1-2)Man(a1-6)]Man(b1-4)GlcNAc(b1-4)GlcNAc
How it was run: as §1

[5] = molecular target: Gal(b1-4)GlcNAc(b1-3)Gal(b1-3)GlcNAc
How it was run: as §1

[6] = molecular target: Gal(b1-4)GlcNAc(b1-3)Gal(b1-4)Glc
How it was run: as §1

[7] = molecular target: Gal(b1-4)GlcNAc(b1-3)Gal(b1-4)GlcNAc
How it was run: as §1

[8] = molecular target: Gal(b1-4)GlcNAc(b1-3)Gal(b1-4)GlcNAc(b1-3)Gal(b1-4)GlcNAc
How it was run: as §1

[9] = molecular target: Gal(b1-4)GlcNAc(b1-3)Gal(b1-4)[Fuc(a1-3)]GlcNAc(b1-3)Gal(b1-4)[Fuc(a1-3)]GlcNAc
How it was run: as §1

[10] = molecular target: Gal(b1-4)GlcNAc(b1-3)GalNAc
How it was run: as §1

[11] = molecular target: Gal(b1-4)GlcNAc(b1-3)[Gal(b1-4)GlcNAc(b1-6)]GalNAc
How it was run: as §1

[12] = molecular target: Gal(b1-4)GlcNAc(b1-6)Gal(b1-4)GlcNAc(b1-6)GalNAc
How it was run: as §1

[13] = molecular target: Gal(b1-4)GlcNAc(b1-6)GalNAc
How it was run: as §1

[14] = molecular target: Gal(b1-4)GlcNAc(b1-6)[Gal(b1-3)]GalNAc
How it was run: as §1

Gal3S(b1-3)GalNAc = molecular target: Gal3S(b1-3)GalNAc
How it was run: as §1

Gal3S(b1-3)GlcNAc = molecular target: Gal3S(b1-3)GlcNAc
How it was run: as §1

[15] = molecular target: Gal3S(b1-3)[Fuc(a1-4)]GlcNAc
How it was run: as §1

Gal3S(b1-4)Glc = molecular target: Gal3S(b1-4)Glc
How it was run: as §1

Gal3S(b1-4)Glc6S = molecular target: Gal3S(b1-4)Glc6S
How it was run: as §1

Gal3S(b1-4)GlcNAc = molecular target: Gal3S(b1-4)GlcNAc
How it was run: as §1

Gal3S(b1-4)GlcNAc6S = molecular target: Gal3S(b1-4)GlcNAc6S
How it was run: as §1

[16] = molecular target: Gal3S(b1-4)[Fuc(a1-3)]Glc
How it was run: as §1

Gal3S6S(b1-4)GlcNAc = molecular target: Gal3S6S(b1-4)GlcNAc
How it was run: as §1

Gal3S6S(b1-4)GlcNAc6S = molecular target: Gal3S6S(b1-4)GlcNAc6S
How it was run: as §1

Gal4S(b1-4)GlcNAc = molecular target: Gal4S(b1-4)GlcNAc
How it was run: as §1

Gal4S6S(b1-4)GlcNAc = molecular target: Gal4S6S(b1-4)GlcNAc
How it was run: as §1

Gal6S(b1-4)Glc = molecular target: Gal6S(b1-4)Glc
How it was run: as §1

Gal6S(b1-4)Glc6S = molecular target: Gal6S(b1-4)Glc6S
How it was run: as §1

Gal6S(b1-4)GlcNAc = molecular target: Gal6S(b1-4)GlcNAc
How it was run: as §1

GalNAc(a1-3)Gal = molecular target: GalNAc(a1-3)Gal
How it was run: as §1

GalNAc(a1-3)GalNAc = molecular target: GalNAc(a1-3)GalNAc
How it was run: as §1

[17] = molecular target: GalNAc(b1-3)Gal(a1-4)Gal(b1-4)GlcNAc
How it was run: as §1

GalNAc(b1-3)GalNAc = molecular target: GalNAc(b1-3)GalNAc
How it was run: as §1

GalNAc(b1-4)GlcNAc = molecular target: GalNAc(b1-4)GlcNAc
How it was run: as §1

Glc(a1-4)Glc = molecular target: Glc(a1-4)Glc
How it was run: as §1

Glc(a1-6)Glc(a1-6)Glc = molecular target: Glc(a1-6)Glc(a1-6)Glc
How it was run: as §1

Glc(b1-4)Glc = molecular target: Glc(b1-4)Glc
How it was run: as §1

Glc(b1-6)Glc = molecular target: Glc(b1-6)Glc
How it was run: as §1

GlcA(b1-3)Gal = molecular target: GlcA(b1-3)Gal
How it was run: as §1

GlcA(b1-6)Gal = molecular target: GlcA(b1-6)Gal
How it was run: as §1

[18] = molecular target: GlcNAc(a1-3)Gal(b1-4)GlcNAc
How it was run: as §1

[19] = molecular target: GlcNAc(a1-6)Gal(b1-4)GlcNAc
How it was run: as §1

B1: CD23 (Homo sapiens) (protein)
chain: MELQVSSGFVCNTCPEKWINFQRKCYYFGKGTKQWVHARYACDDMEGQLVSIHSPEEQDFLTKRASHTGSWIGLRNLDLKGEFIWVDGSHVDYSNWAPGEPTSRSQSEDCVMMRGSGRWNDAFCDRKLGAWVCDRLATCTPPASEGSAESMGPDSRPDPDGRLPTPSAPLHS
- glycan array binding signal (z-score) [1]: -0.394
- glycan array binding signal (z-score) [2]: -0.433
- glycan array binding signal (z-score) [3]: 0.159
- glycan array binding signal (z-score) (Gal(b1-4)Glc): -0.429
- glycan array binding signal (z-score) (Gal(b1-4)Glc6S): -0.283
- glycan array binding signal (z-score) (Gal(b1-4)GlcNAc): -0.351
- glycan array binding signal (z-score) [4]: -0.433
- glycan array binding signal (z-score) [5]: 0.056
- glycan array binding signal (z-score) [6]: -0.657
- glycan array binding signal (z-score) [7]: -0.477
- glycan array binding signal (z-score) [8]: -0.341
- glycan array binding signal (z-score) [9]: 0.162
- glycan array binding signal (z-score) [10]: -0.481
- glycan array binding signal (z-score) [11]: -0.287
- glycan array binding signal (z-score) [12]: -0.27
- glycan array binding signal (z-score) [13]: 0.044
- glycan array binding signal (z-score) [14]: -0.211
- glycan array binding signal (z-score) (Gal3S(b1-3)GalNAc): -0.308
- glycan array binding signal (z-score) (Gal3S(b1-3)GlcNAc): -0.298
- glycan array binding signal (z-score) [15]: 0.525
- glycan array binding signal (z-score) (Gal3S(b1-4)Glc): 0.2
- glycan array binding signal (z-score) (Gal3S(b1-4)Glc6S): 0.296
- glycan array binding signal (z-score) (Gal3S(b1-4)GlcNAc): 0.255
- glycan array binding signal (z-score) (Gal3S(b1-4)GlcNAc6S): 0.296
- glycan array binding signal (z-score) [16]: -0.106
- glycan array binding signal (z-score) (Gal3S6S(b1-4)GlcNAc): -0.069
- glycan array binding signal (z-score) (Gal3S6S(b1-4)GlcNAc6S): 1.06
- glycan array binding signal (z-score) (Gal4S(b1-4)GlcNAc): 0.736
- glycan array binding signal (z-score) (Gal4S6S(b1-4)GlcNAc): -0.54
- glycan array binding signal (z-score) (Gal6S(b1-4)Glc): 0.104
- glycan array binding signal (z-score) (Gal6S(b1-4)Glc6S): 0.798
- glycan array binding signal (z-score) (Gal6S(b1-4)GlcNAc): -0.574
- glycan array binding signal (z-score) (GalNAc(a1-3)Gal): 0.13
- glycan array binding signal (z-score) (GalNAc(a1-3)GalNAc): 0.299
- glycan array binding signal (z-score) [17]: -0.27
- glycan array binding signal (z-score) (GalNAc(b1-3)GalNAc): -0.197
- glycan array binding signal (z-score) (GalNAc(b1-4)GlcNAc): -0.341
- glycan array binding signal (z-score) (Glc(a1-4)Glc): -0.304
- glycan array binding signal (z-score) (Glc(a1-6)Glc(a1-6)Glc): 0.031
- glycan array binding signal (z-score) (Glc(b1-4)Glc): -0.373
- glycan array binding signal (z-score) (Glc(b1-6)Glc): -0.561
- glycan array binding signal (z-score) (GlcA(b1-3)Gal): -0.28
- glycan array binding signal (z-score) (GlcA(b1-6)Gal): -0.24
- glycan array binding signal (z-score) [18]: 0.02
- glycan array binding signal (z-score) [19]: -0.365
